Results are given in words; binding and its absence hold for the method and conditions named. In cells and extracts the contact can be indirect. Binding can be weak; no strength is given. Where a sequence is shown, tags or fusion partners need not be part of it.
Molecular target: T1, GST-UPF3B fusion protein (human) (UniProt Q9BZI7)
T1 sequence: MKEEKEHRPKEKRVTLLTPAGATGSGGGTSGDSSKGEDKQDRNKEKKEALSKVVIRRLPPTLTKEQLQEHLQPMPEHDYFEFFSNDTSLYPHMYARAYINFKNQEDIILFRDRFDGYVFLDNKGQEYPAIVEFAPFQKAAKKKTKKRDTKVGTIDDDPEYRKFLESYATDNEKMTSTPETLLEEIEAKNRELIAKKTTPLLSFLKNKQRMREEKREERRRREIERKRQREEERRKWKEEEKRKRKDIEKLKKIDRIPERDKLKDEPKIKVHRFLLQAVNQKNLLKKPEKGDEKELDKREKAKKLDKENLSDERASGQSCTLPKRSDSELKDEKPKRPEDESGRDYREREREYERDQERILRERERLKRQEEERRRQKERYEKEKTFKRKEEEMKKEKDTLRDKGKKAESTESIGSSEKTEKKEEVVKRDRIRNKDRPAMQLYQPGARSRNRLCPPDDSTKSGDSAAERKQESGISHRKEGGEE
Assay: pull-down; GST fusion protein from Rosetta cells on Glutathione Sepharose beads, incubated with HEK293T lysate for 4 h at 4 °C, washed three times with RIPA buffer, western blot with anti-Flag or anti-GST; only the target purified

| Substance | binding |
| --- | --- |
| IRE1α^ΔKR-Flag (human) (domain or fragment) | no binding |
| IRE1α^ΔR-Flag (human) (domain or fragment) | binds |

Reference: paper PMC11322666
